Measured values reported in article PMC11323535.
Results are given in words; binding and its absence hold for the method and conditions named. Some results given as binding are weak or reduced against the parent protein; the word gives no strength.

Legend:
[1] = molecular target: T1, full-length Siglec-5 expressed on CHO-K1 cells (human) (UniProt O15389); assay: flow cytometry on cells; transiently transfected CHO-K1 cells; rNadA 200 µg/mL, 30 min, 37°C; mouse polyclonal anti-NadA serum and APC secondary antibody; only the binder purified
T1 sequence: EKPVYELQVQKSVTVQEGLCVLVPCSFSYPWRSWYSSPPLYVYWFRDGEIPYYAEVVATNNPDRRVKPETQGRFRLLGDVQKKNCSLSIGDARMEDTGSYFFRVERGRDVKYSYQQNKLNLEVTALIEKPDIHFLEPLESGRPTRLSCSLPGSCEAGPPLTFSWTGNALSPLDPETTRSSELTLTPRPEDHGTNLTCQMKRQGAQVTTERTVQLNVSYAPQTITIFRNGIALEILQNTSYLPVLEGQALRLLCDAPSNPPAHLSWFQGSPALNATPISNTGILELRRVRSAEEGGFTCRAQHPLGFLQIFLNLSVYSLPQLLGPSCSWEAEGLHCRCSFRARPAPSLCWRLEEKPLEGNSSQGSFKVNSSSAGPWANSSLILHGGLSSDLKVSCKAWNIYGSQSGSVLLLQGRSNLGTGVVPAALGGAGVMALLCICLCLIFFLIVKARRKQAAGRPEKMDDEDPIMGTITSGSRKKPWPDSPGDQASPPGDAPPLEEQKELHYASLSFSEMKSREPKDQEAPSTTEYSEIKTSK

[2] = molecular target: T2, full-length Siglec-14 expressed on CHO-K1 cells (human) (UniProt Q08ET2); assay: as above
T2 sequence: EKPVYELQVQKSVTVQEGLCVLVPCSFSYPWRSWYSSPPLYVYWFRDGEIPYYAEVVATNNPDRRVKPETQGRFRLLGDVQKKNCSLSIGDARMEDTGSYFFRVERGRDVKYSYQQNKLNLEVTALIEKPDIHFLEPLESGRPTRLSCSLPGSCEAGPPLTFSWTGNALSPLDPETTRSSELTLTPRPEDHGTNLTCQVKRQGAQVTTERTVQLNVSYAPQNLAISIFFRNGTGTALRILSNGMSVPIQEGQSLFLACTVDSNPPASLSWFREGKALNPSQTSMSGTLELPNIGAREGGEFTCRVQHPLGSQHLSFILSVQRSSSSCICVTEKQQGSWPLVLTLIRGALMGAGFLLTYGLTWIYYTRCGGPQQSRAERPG

“recombinant soluble NadA (NadA_(24–350)) (from UniProt Q8KH85 24-350) (domain or fragment)” was tested, and the binding [1] was “binds” and the binding [2] was “binds”.
